PubChem BioAssay AID504808 – Drosophila RNAi Screening Center | 2011
Screen: 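Fly genes required to hold E2F transcription in check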 (primary screen). Cell system: Drosophila S2 cells. Reagents: long dsRNA against Drosophila genes. Measurement: 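Firefly luciferase driven by E2F sites, normalised to Renilla luciferase on the same minimal promoter, measured by plate reader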. Reading the numbers: E2F firefly: higher = more E2F reporter activity; Renilla normaliser: higher = more normaliser reporter signal. Call rule: 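Called active if the normalised E2F reporter went up by over 50%; the cutoff is arbitrary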.
The deposit covers about 21,000 reagents; this is an unselected part of those with a known target gene and a result. In the full data, 18 (0.084%) are marked active. 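Raw counts without plate normalisation, one of two replicates; the ratio scores behind the calls were not deposited.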 Reagents against one gene are numbered here. Not stated in the record: the amount of reagent, the time to read-out.

For mRpL10 (mitochondrial ribosomal protein L10), what does the deposit list?
E2F firefly, rep 1: 85199; Renilla normaliser, rep 1: 3117; outcome: inactive

For CG31231, what does the deposit list?
E2F firefly, rep 1: 84868; Renilla normaliser, rep 1: 2835; outcome: inactive

For CG10841, how do the results read?
E2F firefly, rep 1: 83722; Renilla normaliser, rep 1: 3713; outcome: inactive

What is on record for Mst84Dc (Male-specific RNA 84Dc)?
E2F firefly, rep 1: 1.39e5; Renilla normaliser, rep 1: 6335; outcome: inactive

For xmas-1 (retired record), what was measured?
E2F firefly, rep 1: 2.33e5; Renilla normaliser, rep 1: 7150; outcome: inactive

How did the screen score Gr89a (Gustatory receptor 89a)?
E2F firefly, rep 1: 99792; Renilla normaliser, rep 1: 5708; outcome: inactive

With Ccp84Af, what does the deposit list?
E2F firefly, rep 1: 1.38e5; Renilla normaliser, rep 1: 6780; outcome: inactive

How did the screen score Cdc42 (Cell division cycle 42)?
E2F firefly, rep 1: 1.33e5; Renilla normaliser, rep 1: 6652; outcome: inactive

With ATPsynbeta (ATP synthase, beta subunit), what was measured?
E2F firefly, rep 1: 59607; Renilla normaliser, rep 1: 4432; outcome: inactive

What is on record for Mondo #1?
E2F firefly, rep 1: 76827; Renilla normaliser, rep 1: 3350; outcome: inactive

With Mondo #2, what was measured?
E2F firefly, rep 1: 95535; Renilla normaliser, rep 1: 3724; outcome: inactive

What did the screen give for Idh (Isocitrate dehydrogenase)?
E2F firefly, rep 1: 78223; Renilla normaliser, rep 1: 3115; outcome: inactive

Sorted by “E2F firefly, rep 1” (high to low): some entries from above
xmas-1 (retired record) → E2F firefly, rep 1 = 2.33e5; Renilla normaliser, rep 1 = 7150; outcome = inactive
Mst84Dc (Male-specific RNA 84Dc) → E2F firefly, rep 1 = 1.39e5; Renilla normaliser, rep 1 = 6335; outcome = inactive
Ccp84Af → E2F firefly, rep 1 = 1.38e5; Renilla normaliser, rep 1 = 6780; outcome = inactive
Gr89a (Gustatory receptor 89a) → E2F firefly, rep 1 = 99792; Renilla normaliser, rep 1 = 5708; outcome = inactive

The results go on:
What is on record for lt (light)?
E2F firefly, rep 1: 99342; Renilla normaliser, rep 1: 4190; outcome: inactive

With CG13526, what does the deposit list?
E2F firefly, rep 1: 95420; Renilla normaliser, rep 1: 4141; outcome: inactive

With dpp (decapentaplegic) #1, what was measured?
E2F firefly, rep 1: 1.45e5; Renilla normaliser, rep 1: 5381; outcome: inactive

For dpp (decapentaplegic) #2, what does the deposit list?
E2F firefly, rep 1: 1.39e5; Renilla normaliser, rep 1: 5776; outcome: inactive

For dpp (decapentaplegic) #3, what was measured?
E2F firefly, rep 1: 1.62e5; Renilla normaliser, rep 1: 5580; outcome: inactive

For CG10584, how do the results read?
E2F firefly, rep 1: 1.33e5; Renilla normaliser, rep 1: 7413; outcome: inactive

What is on record for AIMP3 (aaRS-interacting multifunctional protein 3)?
E2F firefly, rep 1: 1.11e5; Renilla normaliser, rep 1: 4218; outcome: inactive

What is on record for Obp56i (Odorant-binding protein 56i)?
E2F firefly, rep 1: 1.58e5; Renilla normaliser, rep 1: 5806; outcome: inactive

With CCT2 (Chaperonin containing TCP1 subunit 2), how do the results read?
E2F firefly, rep 1: 8210; Renilla normaliser, rep 1: 760; outcome: inactive

For GstE8 (Glutathione S transferase E8), how do the results read?
E2F firefly, rep 1: 79184; Renilla normaliser, rep 1: 3516; outcome: inactive

With LysB (Lysozyme B), how do the results read?
E2F firefly, rep 1: 1.01e5; Renilla normaliser, rep 1: 3866; outcome: inactive

For CG7407, what was measured?
E2F firefly, rep 1: 73010; Renilla normaliser, rep 1: 3450; outcome: inactive

Which result is listed for Theg (Testicular haploid expressed gene)?
E2F firefly, rep 1: 69363; Renilla normaliser, rep 1: 5327; outcome: inactive

What is on record for sac (sterile affecting ciliogenesis)?
E2F firefly, rep 1: 1.34e5; Renilla normaliser, rep 1: 7773; outcome: inactive

What is on record for CG17896?
E2F firefly, rep 1: 1951; Renilla normaliser, rep 1: 1040; outcome: inactive

Which result is listed for Dbp73D (Dead box protein 73D)?
E2F firefly, rep 1: 69536; Renilla normaliser, rep 1: 3355; outcome: inactive
